Experimental data as given in US20220411747A1, “MEDIUM AND METHODS FOR CULTURING ORGANOIDS” (UNIVERSITY HEALTH NETWORK, priority 2019, published 2022).
At least one compound was matched to its structure with a doubt left.

Columns and labels:
pFGFR, pAkt, pErk = test: Western blot of FGFR1 downstream proteins; format: cell-based, human; settings: 1, 3 and 5 μM for 24 hours, FIG. 5E
Experimental: Matrigel/organoid suspension was dissociated with TrypLE Express and organoid pellets were lysed with RIPA buffer (Sigma) with PMSF, sodium vanadate, and protease inhibitor cocktail (Roche, Mississauga, ON, Canada). Protein was quantified via Bradford assay (Bio-rad, Mississauga, ON, Canada), denatured in sample buffer (Bio-rad) and loaded for SDS-PAGE. Proteins were transferred onto nitrocellulose membranes (Bio-rad) and blocked in 5% skim milk for 1 hour and probed overnight with appropriate primary antibodies. […] ECL reagent (GE Healthcare, Chicago, Ill., USA) was used to detect proteins of interest.

PDXO426 PDX = test: In vivo therapeutic study in PDX, tumor size; design: species or system NOD/SCID mice; settings: trametinib 1 mg/kg once daily oral gavage, KRAS mutant PDX, FIG. 4D
PDXO274 PDX = test: In vivo therapeutic study in PDX, tumor size; design: species or system NOD/SCID mice; settings: trametinib 1 mg/kg once daily oral gavage, KRAS wild type PDX, FIG. 4D

`CC(=O)Nc1cccc(-n2c(=O)n(C3CC3)c(=O)c3c(Nc4ccc(I)cc4F)n(C)c(=O)c(C)c32)c1` [trametinib] was tested, and the “targeted inhibition of phosphoproteins (pFGFR, pAkt, pErk)” value (pFGFR, pAkt, pErk) was “inhibited only pErk”, the “in vivo trametinib sensitivity” value (PDXO426 PDX) was “sensitivity” and the “in vivo trametinib sensitivity” value (PDXO274 PDX) was “resistant”.
